From US20190202912A1
Numbering of substitutions follows the chain as printed. These are yes or no findings as the source states them, for the method shown. Binding calls can cover weak binding; strength is not graded here.

B1: 6F8 (antibody, V domains shown)
VH: QVQLKQSGPELVRPGASVKISCEASGYTFTDYYVNWVKQRPGRGLEWIGKIGPGSVSIYYNEKFKDKATLTADKSSSTAYMQLSGLTSEDSAVYFCASYYYGFAYWGQGTLVTVSA
VL: DIVMTQAAPSVPVTPGESVSISCRSSKSLLHSNGNTYLYWFLQRPGQSPQLLIYRMSNLASGVPDRFGGSGSGTAFTLRISRVEAEDVGVYYCMQHLEYPYTFGGGTKLEIKR
B2: 8C8 (antibody, V domains shown)
VH: B1 VH with P9A, R13K, E23K, R43Q, G54E, N61S, D66A, G85S
VL: DIVMTQAAPSVPVTPGESVSISCRSSKSLLHSNGNTYLYWFLQRPGQSPQLLIYRMSNLASGVPDRFGGSGSGTAFTLRISRVEAEDVGVYYCMQHLEYPYTFGGGTKLEIK
B3: 1C3 (antibody, V domains shown)
VH: B1 VH with P9A, R13K, E23K, T28I, R43Q, D66G, G85S
VL: B2 VL with V90F, K108R
B4: 1H3 (antibody, V domains shown)
VH: QVQLKESGPGLVAPSQSLSITCTVSGFSLSNYGVHWVRQPPGKGLEWLVLIWSDGSTTYNSALKSRLSISKDNSKSQVFLKMNSLQTGDTAMYYCARHPYDDYSGYYYTMDYWGQGTSVTVSS
VL: DIQMTQASSSLSVSLGGRVTITCKASDHINNWLAWYQQKPGNAPRLLISGATSLETGVPSRFSGSGSGKDYTLSITSLQTEDVATYYCQQYWSSPLTFGAGTKLELK
B5: 3H10 (antibody, V domains shown)
VH: EVQLQQSGAELVRPGASVKLSCTASGFNIKDYYMHWVKERPEQGLEWIGRIDPEDGDIEYDPKFQGKATMTADTSSNTAYLQFSSLTSEDTAVYYCVTDYDYDGGWFAYWGQGTLVTVSA
VL: QIILTQSPAIMSASPGEKVTMTCSASSSTSFMHWYQQKPGTSPKRWIFDTSKLASGVPGRFIGSGSGTSYSLTISTMEAEDAATYYCHQRSAYPWTFGGGTKLEIK
B6: 1C12 (antibody, V domains shown)
VH: EVQLVESGGGLVKPGGSLKLSCAASGFSFSDYGMHWVRQAPEKGLEWVAYISSGSSILYYADIVKGRFTISRDNAKNTLFLQMTSLRSEDTAMYYCARDHYHGNGSDYWGQGTTLTVSS
VL: DVLMTQTPLSLPVSLGDQASISCRSSQSIVHSNGNTYLEWYLQKPGQSPKLLIYKVSNRFSGVPDRFSGSGSGTDFTLKISRVEAEDLGVYYCFQGSHVPWTFGGGTKLEIK
B7: 1B2 (antibody, V domains shown)
VH: B6 VH with L11F, S28T, L58I, I63T
VL: B6 VL
B8: 105A (antibody, V domains shown)
VH: EVQLQQSGAELVRPGASVKLSCTASGFNIKDDYMHWVKQRPEQGLEWIGCIDPENGDIEYASRFQGKATMTADTSSNTAYLQLTSLTSADTAVYYCTTYVGFGYWGQGTLVTVSA
VL: B6 VL with W101L, G105A, I111L
B9: 92A (antibody, V domains shown)
VH: DVQLQESGPGLVKFSQSLSLTCSVTGYSITSGYYWNWIRQFPGNKLEWMGYIRHDGSNNYNPSLKNRISITRDTSKNQFFLKLNSVITEDTATYYCVREIYDGSSGYFDVWGTGTTVTVSS
VL: QIVLTQSPAIMSASLGEEITLICSASSSVSYMHWYQQKSGTSPKLLIYRTSNLASGVPSRFSGSGSGTFYSLTISSVEAEDAADYYCHQWSSWTFGGGTQLEIK

What follows are binders tested against mS15 (Mus musculus) (assay: flow cytometry, formalin-fixed MC38.mS15 cells).

| binding | Binder |
| --- | --- |
| binds | B1 |
| binds | B2 |
| binds | B3 |
| binds | B4 |
| binds | B5 |
| binds | B6 |
| binds | B7 |
| binds | B8 |
| binds | B9 |

What follows are binders tested against mS15 (Mus musculus) (assay: flow cytometry MFI on 293T.mS15 cells (y axis of the dot plot)).

| binding | Binder |
| --- | --- |
| binds | B1 |
| binds | B2 |
| binds | B3 |
| binds | B4 |
| binds | B5 |
| binds | B6 |
| binds | B7 |

These binders were tested against mS15 (Mus musculus) (assay: flow cytometry, live MC38.mS15 cells, 1 µg mAb/1E05 cells/100 µL, PE secondary).

| binding | Binder |
| --- | --- |
| binds | B1 |
| binds | B2 |
| binds | B3 |
| binds | B4 |
| binds | B5 |
| binds | B6 |
| binds | B7 |
| binds | B8 |
| binds | B9 |

What follows are binders tested against mS15 (Mus musculus) (assay: flow cytometry, MC38.mS15 cells, 1 µg hybridoma-purified mAb, PE anti-mouse Ig).

| binding | Binder |
| --- | --- |
| binds | B1 |
| binds | B2 |
| binds | B3 |
| binds | B4 |
| binds | B5 |
| binds | B6 |
| binds | B7 |
| binds | B8 |
| binds | B9 |

Each binder was assayed against mS15 (Mus musculus) (assay: flow cytometry titration, 293T cells transfected with mouse Siglec-15 (293T.mS15)).

| binding | Binder |
| --- | --- |
| binds | B1 |
| binds | B2 |
| binds | B3 |
| binds | B4 |
| binds | B5 |
| binds | B6 |
| binds | B7 |
